PMC8744458 (Beilstein Journal of Organic Chemistry, 2022)
HELM strings list residues between dots; [ac] is acetyl, [am] amide, other brackets name non-standard units.

Test: general procedure: Fmoc solid-phase peptide synthesis; Rink Amide AM; TBTU, HATU
Conditions: whole synthesis; for isolated yield: overall, referring to initial resin loading

| Substance | isolated yield (scale 50 µmol) [%] | isolated mass (scale 50 µmol) [mg] | further results |
| --- | --- | --- | --- |
| PEPTIDE1{[ac].E.N.P.E.[S5].I.L.D.[S5].H.V.Q.R.V.M.[am]}$PEPTIDE1,PEPTIDE1,6:R3-10:R3$$$V2.0 | 31 | 30.6 | – |
| PEPTIDE1{[FITC].[bAla].E.N.P.E.[S5].I.L.D.[S5].H.V.Q.R.V.M.[am]}$PEPTIDE1,PEPTIDE1,7:R3-11:R3$$$V2.0 | 29 | 35.0 | – |
| PEPTIDE1{[ac].E.N.P.E.[Trp7].I.L.D.[Phe4].H.V.Q.R.V.M.[am]}$PEPTIDE1,PEPTIDE1,6:R3-10:R3$$$V2.0 | 3 | 3.5 | – |
| PEPTIDE1{[ac].E.N.P.E.S.I.L.D.E.H.V.Q.R.V.M.[am]}$$$$V2.0 | – | – | isolated yield (scale 100 µmol): 5%; isolated mass (scale 100 µmol): 9.0 mg |
| PEPTIDE1{[ac].E.N.P.E.[Trp6].I.L.D.[Phe4].H.V.Q.R.V.M.[am]}$PEPTIDE1,PEPTIDE1,6:R3-10:R3$$$V2.0 | 4 | 3.8 | – |
| PEPTIDE1{[ac].E.N.P.E.W.I.L.D.K.H.V.Q.R.V.M.[am]}$$$$V2.0 | – | – | isolated yield (scale 33 µmol): 24%; isolated mass (scale 33 µmol): 17.1 mg |
| PEPTIDE1{[FITC].[bAla].E.N.P.E.S.I.L.D.E.H.V.Q.R.V.M.[am]}$$$$V2.0 | – | – | isolated yield (scale 33 µmol): 55%; isolated mass (scale 33 µmol): 43.3 mg |
